# The supplement of paper PMC4604168 (melanoma cell lines)
# This is one part of the list. Repeats are few or missing, and single values can be far off.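 The apoptosis fraction was the count of cleaved-PARP antibody-stained nuclei relative to all DNA-stained nuclei, imaged in 1,536-well plates. Screening doses were set so most cells survived, and baseline and induced cleaved-PARP levels vary greatly across cell lines.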
# Tested on: COLO792
# Test: cleaved PARP positive nuclei fraction relative to DMSO control; melanoma cells; higher = more apoptosis
# Conditions: library dose: low library concentration; 72 h
row,Compound,cleaved PARP positive nuclei fraction
1,"O=c1[nH]nc(Sc2ncc([N+](=O)[O-])s2)n1-c1ccc2c(c1)OCCO2 + COc1cc2c(Oc3ccc4[nH]c(C)cc4c3F)ncnc2cc1OCCCN1CCCC1 [cediranib] (first compound 0.2 µM, partner dose 0.4 µM)",119%
2,"Cc1cc(Nc2cc(N3CCN(C)CC3)nc(Sc3ccc(NC(=O)C4CC4)cc3)n2)n[nH]1 [Tozasertib] + NC(=O)Nc1cc(-c2cccc(F)c2)sc1C(=O)N[C@H]1CCCNC1 [AZD7762] (first compound 0.006 µM, partner dose 0.02 µM)",114%
3,"Cc1cn(-c2cc(NC(=O)c3ccc(C)c(Nc4nccc(-c5cccnc5)n4)c3)cc(C(F)(F)F)c2)cn1 [nilotinib] + O=C(Nc1cccc(Cl)c1)Nc1ncc(CCNc2ncnc3ccsc23)s1 [SNS314] (first compound 0.2 µM, partner dose 0.0008 µM)",197%
4,"CCCCCCCCCCCCCCCCCCOP(=O)([O-])OC1CC[N+](C)(C)CC1 [Perifosine] + CC(C)(C)c1cnc(CSc2cnc(NC(=O)C3CCNCC3)s2)o1 [SNS-032] (first compound 0.4 µM, partner dose 0.01 µM)",177%
5,"O=C(Nc1cc(C(F)(F)F)cc(C(F)(F)F)c1)c1cc(Cl)ccc1O + NCC(=O)Nc1ccc(-n2nc(C(F)(F)F)cc2-c2ccc3c(ccc4ccccc43)c2)cc1 [OSU03012] (first compound 0.016 µM, partner dose 1 µM)",154%
6,"CCCCCCCCCCCCCCCCCCOP(=O)([O-])OC1CC[N+](C)(C)CC1 [Perifosine] + O=C(O)c1ccc(-c2c[nH]c3ncc(-c4ccccc4)cc23)cc1C1CCCC1 [GSK650394] (first compound 0.4 µM, partner dose 0.16 µM)",77.8%
7,"O=C(Nc1cc(C(F)(F)F)cc(C(F)(F)F)c1)c1cc(Cl)ccc1O + C[C@@H]1CCN(C(=O)CC#N)C[C@@H]1N(C)c1ncnc2[nH]ccc12 [CP690550] (first compound 0.016 µM, partner dose 1 µM)",19.8%
8,"CC[C@]1(O)C[C@H]2CN(CCc3c([nH]c4ccccc34)[C@@](C(=O)OC)(c3cc4c(cc3OC)N(C=O)[C@H]3[C@@](O)(C(=O)OC)[C@H](OC(C)=O)[C@]5(CC)C=CCN6CC[C@]43[C@@H]65)C2)C1 [vincristine] + CO[C@@H]1[C@H](N(C)C(=O)c2ccccc2)C[C@H]2O[C@]1(C)n1c3ccccc3c3c4c(c5c6ccccc6n2c5c31)C(=O)NC4 [Midostaurin] (first compound 0.0001 µM, partner dose 0.08 µM)",134%
9,"COc1cc([C@@H]2c3cc4c(cc3[C@@H](O[C@@H]3O[C@@H]5CO[C@@H](C)O[C@H]5[C@H](O)[C@H]3O)[C@H]3COC(=O)[C@H]23)OCO4)cc(OC)c1O [etoposide] + OCCn1cc(-c2cnc3nnn(Cc4ccc5ncccc5c4)c3n2)cn1 [PF04217903] (first compound 0.02 µM, partner dose 1 µM)",119%
10,"CCCCCCCCCCCCCCCCCCOP(=O)([O-])OC1CC[N+](C)(C)CC1 [Perifosine] + C[C@@H]1CCN(C(=O)CC#N)C[C@@H]1N(C)c1ncnc2[nH]ccc12 [CP690550] (first compound 0.4 µM, partner dose 1 µM)",38%
11,"O=C(/C=C/c1cccnc1)NCCCCC1CCN(C(=O)c2ccccc2)CC1 + Cc1ccc(NC(=O)c2cccc(N(C)C)c2)cc1NC(=O)c1ccc(O)cc1 [ZM336372] (first compound 0.01 µM, partner dose 2 µM)",449%
12,"Cc1ccc(Nc2nccc(N(C)c3ccc4c(C)n(C)nc4c3)n2)cc1S(N)(=O)=O [Pazopanib] + COc1cc(Nc2ncc(F)c(Nc3ccc4c(n3)NC(=O)C(C)(C)O4)n2)cc(OC)c1OC [Tamatinib] (first compound 0.4 µM, partner dose 0.4 µM)",204%
13,"N#CC[C@H](C1CCCC1)n1cc(-c2ncnc3[nH]ccc23)cn1 [ruxolitinib] + COc1cc(Nc2ncc(F)c(Nc3ccc4c(n3)NC(=O)C(C)(C)O4)n2)cc(OC)c1OC [Tamatinib] (first compound 1 µM, partner dose 0.4 µM)",358%

# From no. 9 up to 10, as listed above:
row,Compound,cleaved PARP positive nuclei fraction
9,"COc1cc([C@@H]2c3cc4c(cc3[C@@H](O[C@@H]3O[C@@H]5CO[C@@H](C)O[C@H]5[C@H](O)[C@H]3O)[C@H]3COC(=O)[C@H]23)OCO4)cc(OC)c1O [etoposide] + OCCn1cc(-c2cnc3nnn(Cc4ccc5ncccc5c4)c3n2)cn1 [PF04217903] (first compound 0.02 µM, partner dose 1 µM)",119%
10,"CCCCCCCCCCCCCCCCCCOP(=O)([O-])OC1CC[N+](C)(C)CC1 [Perifosine] + C[C@@H]1CCN(C(=O)CC#N)C[C@@H]1N(C)c1ncnc2[nH]ccc12 [CP690550] (first compound 0.4 µM, partner dose 1 µM)",38%
